# According to PubChem BioAssay AID493014 (National Center for Advancing Translational Sciences (NCATS), 2011):
# Some of the results follow. These are further read-outs of the screen, such as a control signal, another cell line or another target. No call is given for them. Compounds called inactive in the main read-out are mostly missing here. Words in brackets tell the shape of the fitted curve; partial curves, single points and poor fits give uncertain potencies.
# Assay: qHTS Assay to Find Inhibitors of Chronic Active B-Cell Receptor Signaling
# Conditions: ABC-DLBCL IkBa-CBG/CBR reporter, luminescence ratio (green luciferase fused to IkBa over red control in TMD8 lymphoma cells), 4 h
# Summary of the method: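 Cell line TMD8 (human ABC DLBCL), stably expressing tet-inducible CBG68-IkBa fusion and CBR; IMDM/0.5% FBS; cpd up to 46 uM; dox induction, 4 h, 37C/5% CO2; dual luminescence; green/red ratio; MG132 control.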
# [1] = measured here: CBR red luminescence, cell number
# [2] = measured here: IkBa-CBG green luminescence
SMILES,AC50 [1],AC50 [2]
Cc1cc(/C=C(\C#N)C(=O)NCCc2c[nH]c3ccccc23)c(C)n1C,"20.6 µM [falling, single point]",–
O=C(O)c1cccc(-c2nc3ccccc3[nH]2)c1,"8.2 µM [falling, partial curve]",–
N#C/C(=C/c1ccc(Br)s1)C(=O)NCCc1c[nH]c2ccccc12,"29.1 µM [falling, single point]",–
Fc1ccccc1COc1ccc(Br)cc1CNCc1ccncc1,"25.9 µM [falling, single point]",–
Cc1cc(C)n(-c2ccc(N3CCOCC3)nn2)n1,"23.1 µM [falling, single point]",–
CC(C)C[C@@H](CO)N(Cc1ccccc1)S(=O)(=O)N(Cc1ccccc1)[C@H](CO)CC(C)C,"32.6 µM [falling, single point]",–
C=CCNC(=O)COC(=O)c1nc2nccc(C)n2n1,"35.5 µM [falling, single point]",–
Cc1ccc(NC(=O)c2cc(S(=O)(=O)N3CCC4(CC3)OCCO4)ccc2F)cc1,"2.06 µM [falling, full curve, poor fit]",–
CCCC(=O)Nc1ccc(NC(=O)c2cccc(OC)c2)cn1,"12.6 µM [falling, partial curve, poor fit]",–
CC1CCC2C(=O)N(c3cccc(C(=O)Nc4ccc(F)cc4)c3)C(=O)C2C1 (stereo not drawn),"25.1 µM [falling, single point]",–
O=C(/C=C/c1c(Cl)nc2ccccn12)Nc1ccc(F)cc1,"14.1 µM [falling, partial curve, poor fit]",–
CCOC(=O)c1c(-c2cccc(C)c2)csc1NC(=O)c1c(-c2ccccc2)noc1C,–,"14.1 µM [rising, partial curve, poor fit]"
NC(=S)NC1CC2CC1C1C=CCC21 (stereo not drawn),"4.47 µM [falling, full curve, poor fit]",–
Cc1ccc2nc(-c3ccccc3)cc(C(=O)NNC(=O)c3csc(N4CCOCC4)n3)c2c1,"6.51 µM [rising, single point]",–
CC(C)(C)c1ccc(OCC(=O)NN2Cc3ccccc3C2=N)cc1,"4.47 µM [falling, partial curve, poor fit]",–
COc1cc(CN(CCc2c(C)[nH]c3ccc(C)cc23)C(=S)NC(C)(C)C)cc(OC)c1OC,"29.1 µM [falling, single point]",–
COc1ccc(-c2ccc(SC)nn2)cc1,"15.8 µM [falling, single point]",–
Cc1ccccc1C(=O)Oc1cc(N)n(S(C)(=O)=O)n1,"25.1 µM [falling, single point]",–
COc1ccc(Nc2nnc(C)c3ccccc23)cc1C(N)=O,"12.6 µM [falling, partial curve, poor fit]",–
COc1ccccc1NC(=O)CSc1nnc(COc2ccc(Cl)cc2)n1Cc1ccco1,"35.5 µM [falling, single point]",–
CCN(C(=O)c1cccs1)c1nc(-c2ccc(OC)cc2)cs1,"3.55 µM [rising, full curve, poor fit]",–

SMILES,AC50 [1],AC50 [2]
CCCCOc1ccc(-c2c(C#N)c(N)nc(SCC(N)=O)c2C#N)cc1,"29.1 µM [falling, single point]",–
CSc1ccc(-c2c(C#N)c(N)nc3c2CCCC3)cc1,"12.6 µM [rising, partial curve, poor fit]",–
CCN(CC)c1nc(Nc2ccc(Cl)cc2)nc(OCC#N)n1,"0.355 µM [rising, full curve, poor fit]",–
COc1ccc(C(=O)Oc2c(C)occc2=O)cc1OC,"29.1 µM [rising, single point]",–
O=C(NCc1ccc2c(c1)OCO2)C12CN(Cc3ccccc3)CC1C(c1cccc([N+](=O)[O-])c1)=NO2 (stereo not drawn),"29.1 µM [rising, single point]",–
COc1ccccc1NC(=O)CSc1nnc(Cn2nnc(-c3ccccc3)n2)n1-c1ccccc1,"0.731 µM [rising, partial curve, poor fit]",–
Cc1ccc2c(c1)[C@H]1[C@H](CO2)[C@H](c2ccccc2)[C@]2(C)C(=O)Nc3cc(F)ccc3C(=O)N12,"4.11 µM [falling, full curve]",–
CN(C)c1ccc(/C=C(\Cl)c2nc3ccccc3s2)cc1,"20.6 µM [falling, single point]",–
CCOc1ccc(-c2cc(CCCC(=O)NCCCOC)no2)cc1,"8.91 µM [falling, partial curve, poor fit]",–
CCCCCCCNC(=O)C1(CC2CC(c3cccc(Br)c3)=NO2)CCN(C(=O)c2cc(OCC)c(OCC)c(OCC)c2)CC1 (stereo not drawn),–,"6.51 µM [rising, partial curve, poor fit]"
CCC(C(=O)N1CCOCC1)n1nc(C)n2c(cc3cc(C)ccc32)c1=O (stereo not drawn),"11.2 µM [rising, partial curve, poor fit]",–
CC(=O)c1ccc(N2Cc3ccccc3/C2=N\C(=O)Nc2ccc(Cl)cc2)cc1,"8.2 µM [rising, partial curve, poor fit]",–
COc1ccc(NC(=O)c2ccc(CNS(=O)(=O)c3cccc(OC)c3)cc2)cc1,"29.1 µM [rising, single point]",–
C/C(=N\NC(=O)c1ccccc1O)c1cccs1,"1.78 µM [falling, full curve, poor fit]",–
CN(C)C1=C(Cl)C(=O)N(c2ccc(Cl)c(Cl)c2)C1=O,"12.6 µM [falling, single point]",–
COc1ccc(N(C)C(=O)c2cc3c(s2)-c2ccccc2S(=O)(=O)C3)cc1,"0.251 µM [rising, full curve, poor fit]",–
Cc1cc([N+](=O)[O-])ccc1N=Nc1c(N)[nH]n(-c2ccccc2)c1=O,"0.631 µM [falling, full curve]",–
COc1cccc(NC(=O)c2cc3ccccc3o/c2=N\O)c1,"4.47 µM [falling, full curve]",–
CCc1cc(=O)oc2cc(C)cc(OCC(=O)NCCc3c[nH]c4ccccc34)c12,"22.4 µM [falling, single point]",–
CSCCC(NC(=O)COc1ccccc1)C(=O)N1CCOCC1 (stereo not drawn),"29.1 µM [rising, single point]",–
O=C(CNC(=O)c1cccc(F)c1)OCc1cc(=O)n2cc(Br)ccc2n1,"16.4 µM [rising, single point]",–

# Ordered by count of non-hydrogen atoms (largest number first): part of the list above.
SMILES,AC50 [1],AC50 [2]
O=C(NCc1ccc2c(c1)OCO2)C12CN(Cc3ccccc3)CC1C(c1cccc([N+](=O)[O-])c1)=NO2 (stereo not drawn),"29.1 µM [rising, single point]",–
CCc1cc(=O)oc2cc(C)cc(OCC(=O)NCCc3c[nH]c4ccccc34)c12,"22.4 µM [falling, single point]",–
CSCCC(NC(=O)COc1ccccc1)C(=O)N1CCOCC1 (stereo not drawn),"29.1 µM [rising, single point]",–
CCN(CC)c1nc(Nc2ccc(Cl)cc2)nc(OCC#N)n1,"0.355 µM [rising, full curve, poor fit]",–

# Further results follow:

SMILES,AC50 [1],AC50 [2]
COCC(C)n1c(C)cc(C(=O)COc2ccc(N(C)S(=O)(=O)c3ccc(NC(C)=O)cc3)cc2)c1C (stereo not drawn),"0.00411 µM [rising, full curve, poor fit]",–
Cc1cccc(CS(=O)(=O)Cc2ccc(C(=O)NCc3ccc(F)cc3)o2)c1,"17.8 µM [rising, single point]",–
Cn1cc(/C=N\NC(=O)C2COc3ccccc3O2)c2ccccc21 (stereo not drawn),"23.1 µM [rising, partial curve, poor fit]",–
CCCCOc1ccc(CSC(=N)N)cc1Cl,"11.2 µM [falling, partial curve, poor fit]",–
COc1cccc(NC(=O)c2cnc(SCC(=O)N3CCCc4ccccc43)n(C)c2=O)c1,"15.8 µM [falling, partial curve, poor fit]",–
Cc1cccc(OCC(=O)N2CCC3(CC2)CC(=O)c2ccccc2O3)c1,"20.6 µM [falling, single point]",–
CCOc1ccc(C(=O)SC2=NCCS2)cc1,"10.3 µM [falling, partial curve]",–
O=C(CNC(=O)c1cccs1)N=Nc1c(O)[nH]c2ccc([N+](=O)[O-])cc12,"17.8 µM [falling, single point]",–
Cn1cccc1CC(=O)NNC(=S)NC(=O)c1ccc(F)cc1,"35.5 µM [falling, partial curve, poor fit]",–
COc1cccc(NC(=O)CSc2nnc(-c3ccc(C)cc3)o2)c1,"1.84 µM [falling, full curve]",–
O=C(NCC(=O)N(c1ccccc1F)C(C(=O)NCC1CCCO1)c1ccccc1)c1ccco1 (stereo not drawn),"16.4 µM [rising, single point]",–
Cc1ccccc1C(=O)NNC(=O)c1cccc(Br)c1,"12.6 µM [falling, partial curve, poor fit]",–
COc1ccc(OC)c(NC=C2C(=O)OC(C)(C)OC2=O)c1,"8.91 µM [falling, partial curve, poor fit]",–
O=C(NC(=S)N1CCN(c2ccc(Cl)cc2[N+](=O)[O-])CC1)c1ccco1,"0.146 µM [rising, full curve, poor fit]",–
Cc1ccc(-c2nnc(COC(=O)c3cccs3)o2)cc1,"0.398 µM [rising, full curve]",–
Cc1ccc(S(=O)(=O)N2C(=O)CCC2C(=O)O/N=C(\N)c2ccccc2)cc1 (stereo not drawn),"3.55 µM [rising, full curve, poor fit]",–
OCCCNc1nccc(-c2cc(Nc3cccc(Cl)c3)ncn2)n1,"4.47 µM [falling, full curve, poor fit]",–
CCOC(=O)c1ccc(Nc2c(-c3ccc(N(C)C)cc3)nc3nc[nH]n23)cc1,"8.91 µM [falling, partial curve, poor fit]",–
COCCCNc1oc(-c2ccccc2Cl)nc1C#N,"22.4 µM [rising, single point]",–
Clc1ccc(-c2c[n+](Cc3ccc(Cl)cc3Cl)c3n2CCCCC3)cc1,"15.8 µM [falling, single point]",–
Cn1c(=O)c2cc(S(=O)(=O)Nc3cccc(F)c3)ccc2n(C)c1=O,"29.1 µM [falling, single point]",–
